Patent US20140010756A1
These are yes or no findings as the source states them, for the method shown. Some results given as binding are weak or reduced against the parent protein; the word gives no strength.

The chains behind the UniProt entries cited, without tags or fusion partners. Where a name states a change or a piece, a line headed by the entry shows the natural chain unless it says otherwise.
UniProt P14207: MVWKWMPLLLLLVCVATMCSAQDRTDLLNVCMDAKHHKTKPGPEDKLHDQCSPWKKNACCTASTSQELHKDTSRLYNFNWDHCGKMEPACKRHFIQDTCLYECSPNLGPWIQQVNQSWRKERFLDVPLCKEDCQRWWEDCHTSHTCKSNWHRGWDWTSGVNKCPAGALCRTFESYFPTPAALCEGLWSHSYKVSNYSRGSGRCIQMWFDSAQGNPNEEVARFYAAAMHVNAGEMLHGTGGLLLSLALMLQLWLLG

Biological target: human folate receptor β (FRβ) (human) (UniProt P14207)
Experiment: hybridoma antibodies selected by reactivity with FRβ-expressing cells (human FRβ on mouse B300-19 cells); reactivity analysed by flow cytometry

B1: anti-human FRβ mouse monoclonal antibody 94b (antibody, mouse IgG1, V domains shown)
VH: EVQLQQSGAELVKPGASVRLSCTASGFNIKDTYMYWVKQRPEQGLEWIGRLDPANGNTRYDPKFQGKATITSDTSSNTAYLQLSSLTSEDTAVYYCAGDYPIIDYWGQGTTLTVSS
VL: DIVMSQSPSSLAVSAGEKVTMSCKSSQSLLNSRTRKTYLAWYQQKPGQSPKLLIYWASTRESGVPDRFTGSGSGTEFTLTISSVQAEDLAVYYCKQSYNLWTFGGGTKLEIKR
Question: Which binding does the source give for B1 here?
Answer: binds
